Test results as given in article PMC11263086.

Target: glycated albumin (GA) (UniProt P02768)
Assay: electrochemical aptasensor (DPV, CV)
Details: aptamer on PDA NPs, 0.05-5 uM, GA 0.5-1000 ug/mL, LOD 0.17 ug/mL at 0.5 uM aptamer; 5'-NH2; PBS pH 7.4, 60 min GA incubation; DPV in 5 mM ferricyanide, 0.1 M KCl in PBS; incubation temperature not stated; commercial protein; single-stranded …

Q: Does “TGCGGTTGTAGTACTCGTGGCCG [anti-GA aptamer (23 nt)]” bind?
A: binds

For at least one entry, the source does not settle the construct or the ends of the probe.
